The supplement of paper PMC10646978
± gives the standard deviation. The entries are a selection whose mix differs from that of the whole data set.

What was measured:
Conditions in all cases: modulator concentration 10 µM
[1] = system: RAW-Dual (murine macrophage reporter line); test: NF-kB reporter (SEAP) activity fold change vs agonist alone; higher = enhanced NF-kB activity
Method in brief: (§1)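 Compound reached 10 μM final in each well by pin transfer, onto RAW-Dual murine macrophage reporter cells seeded at 50 000 per well in 384-well plates. After 1 hour at 37 °C, the cells were stimulated overnight with a PRR agonist. SEAP in the supernatant was read with QUANTI-Blue at 620 nm absorbance for NF-κB, and Lucia luciferase was read with QUANTI-Luc luminescence for IRF. Each signal was turned into fold change against the mean agonist-only control on the same plate, and two replicate plates were averaged with propagated errors.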

[2] = system: RAW-Dual (murine macrophage reporter line); test: IRF reporter (Lucia luciferase) activity fold change vs agonist alone; higher = enhanced IRF activity
Method in brief: as §1

[3] = system: RAW-Dual (murine macrophage reporter line); test: viability score (confluency relative to resting cells, overnight) (fraction); higher = more viable, active = viable (0.7 or more)
Method in brief: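 A compound met the cutoff when both of two confluency masks exceeded 70% of resting cells. Those masks were made with IncuCyte software from IncuCyte images of RAW-Dual macrophages treated overnight at 10 μM final. This is the basis of the viability score, which is confluency relative to resting cells.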

[4] = agonist: CpG ODN 1826 0.5 ug/mL

SMILES	NF-kB reporter [1, 4]	NF-kB reporter ([1]; agonist: LPS 0.1 ug/mL)	NF-kB reporter ([1]; agonist: MPLA 0.25 ug/mL)	IRF reporter ([2]; agonist: 3'3'-cGAMP 10 ug/mL)	IRF reporter ([2]; agonist: LPS 0.1 ug/mL)	IRF reporter ([2]; agonist: MPLA 0.25 ug/mL)	viability score [3]
Br.CN1C2CCC1CC(OC(=O)C(O)c1ccccc1)C2 (stereo not drawn)	1.26 ± 0.34	1.07 ± 0.17	2.65 ± 1.6	0.919 ± 0.032	1.29 ± 0.17	1.4 ± 0.14	active: 0.984
CN1C2CCC1CC(OC(c1ccccc1)c1ccccc1)C2.O=S(=O)(O)O (stereo not drawn)	0.956 ± 0.11	0.802 ± 0.048	2.2 ± 0.051	0.876 ± 0.051	0.857 ± 0.1	2.5 ± 0.39	
